# Assay results: the supplement of paper PMC8728848
# The other results are listed elsewhere or left out.
# Experiments:
# Experiment in all cases: glycan array binding signal (z-score within array); higher = stronger binding
# Settings in all cases: glycan notation: IUPAC condensed, linker removed
# [1] = target: Gal(b1-3)GlcNAc(b1-2)Man(a1-3)[Gal(b1-3)GlcNAc(b1-2)Man(a1-6)]Man(b1-4)GlcNAc(b1-4)[Fuc(a1-6)]GlcNAc
# Method in brief: (§1)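 The binding signal is a Z-score computed within each array and averaged over linkers. Arrays of the same protein sequence at different concentrations or buffers were also averaged together. Data originate from 3228 arrays in the Consortium for Functional Glycomics database, kept only where the protein sequence was available.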
# [2] = target: Gal(b1-3)GlcNAc(b1-2)Man(a1-3)[GlcNAc(b1-4)][Gal(b1-3)GlcNAc(b1-2)Man(a1-6)]Man(b1-4)GlcNAc(b1-4)GlcNAc
# Method in brief: as §1
# [3] = target: Gal(b1-3)GlcNAc(b1-2)[Gal(b1-3)GlcNAc(b1-6)]Man(a1-6)[Gal(b1-3)GlcNAc(b1-2)Man(a1-3)]Man(b1-4)GlcNAc(b1-4)GlcNAc
# Method in brief: as §1
# [4] = target: Gal(b1-3)GlcNAc(b1-3)Gal(b1-3)GlcNAc
# Method in brief: as §1
# [5] = target: Gal(b1-3)GlcNAc(b1-3)Gal(b1-4)Glc
# Method in brief: as §1
# [6] = target: Gal(b1-3)GlcNAc(b1-3)Gal(b1-4)GlcNAc
# Method in brief: as §1
# [7] = target: Gal(b1-3)GlcNAc(b1-3)Gal(b1-4)GlcNAc(b1-2)Man(a1-3)[Gal(b1-3)GlcNAc(b1-3)Gal(b1-4)GlcNAc(b1-2)Man(a1-6)]Man(b1-4)GlcNAc(b1-4)GlcNAc
# Method in brief: as §1
# [8] = target: Gal(b1-3)GlcNAc(b1-3)Gal(b1-4)GlcNAc(b1-2)[Gal(b1-3)GlcNAc(b1-3)Gal(b1-4)GlcNAc(b1-6)]Man(a1-6)[Gal(b1-3)GlcNAc(b1-3)Gal(b1-4)GlcNAc(b1-2)Man(a1-3)]Man(b1-4)GlcNAc(b1-4)[Fuc(a1-6)]GlcNAc
# Method in brief: as §1
# [9] = target: Gal(b1-3)GlcNAc(b1-3)Gal(b1-4)GlcNAc(b1-3)Gal(b1-4)GlcNAc(b1-2)[Gal(b1-3)GlcNAc(b1-3)Gal(b1-4)GlcNAc(b1-3)Gal(b1-4)GlcNAc(b1-6)]Man(a1-6)[Gal(b1-3)GlcNAc(b1-3)Gal(b1-4)GlcNAc(b1-3)Gal(b1-4)GlcNAc(b1-2)Man(a1-3)]Man(b1-4)GlcNAc(b1-4)[Fuc(a1-6)]GlcNAc
# Method in brief: as §1
# [10] = target: Gal(b1-3)GlcNAc(b1-3)Gal(b1-4)GlcNAc(b1-6)[Gal(b1-3)GlcNAc(b1-3)]Gal(b1-4)Glc
# Method in brief: as §1
# [11] = target: Gal(b1-3)GlcNAc(b1-3)Gal(b1-4)[Fuc(a1-3)]GlcNAc
# Method in brief: as §1
# [12] = target: Gal(b1-3)GlcNAc(b1-3)Gal(b1-4)[Fuc(a1-3)]GlcNAc(b1-6)[Gal(b1-3)GlcNAc(b1-3)]Gal(b1-4)Glc
# Method in brief: as §1
# [13] = target: Gal(b1-3)GlcNAc(b1-3)GalNAc
# Method in brief: as §1
# [14] = target: Gal(b1-3)GlcNAc(b1-6)Gal(b1-4)GlcNAc
# Method in brief: as §1
# [15] = target: Gal(b1-3)GlcNAc(b1-6)GalNAc
# Method in brief: as §1
# [16] = target: Gal(b1-3)GlcNAc(b1-6)[Gal(b1-3)]GalNAc
# Method in brief: as §1
# Gal(b1-3)GlcNAc6S = target: Gal(b1-3)GlcNAc6S
# Method in brief: as §1
# [17] = target: Gal(b1-3)[Fuc(a1-4)]GlcNAc
# Method in brief: as §1
# [18] = target: Gal(b1-3)[Fuc(a1-4)]GlcNAc(b1-2)Man
# Method in brief: as §1
# [19] = target: Gal(b1-3)[Fuc(a1-4)]GlcNAc(b1-2)Man(a1-3)[Gal(b1-3)[Fuc(a1-4)]GlcNAc(b1-2)Man(a1-6)]Man(b1-4)GlcNAc(b1-4)[Fuc(a1-6)]GlcNAc
# Method in brief: as §1
# [20] = target: Gal(b1-3)[Fuc(a1-4)]GlcNAc(b1-3)Gal(b1-3)[Fuc(a1-4)]GlcNAc
# Method in brief: as §1
# [21] = target: Gal(b1-3)[Fuc(a1-4)]GlcNAc(b1-3)Gal(b1-4)[Fuc(a1-3)]GlcNAc
# Method in brief: as §1
# [22] = target: Gal(b1-3)[Fuc(a1-4)]GlcNAc(b1-6)GalNAc
# Method in brief: as §1
# [23] = target: Gal(b1-3)[GlcNAc(b1-6)]GalNAc
# Method in brief: as §1
# [24] = target: Gal(b1-3)[Neu5Ac(a2-6)]GalNAc
# Method in brief: as §1
# [25] = target: Gal(b1-3)[Neu5Ac(a2-6)]GlcNAc(b1-4)Gal(b1-4)Glc
# Method in brief: as §1
# [26] = target: Gal(b1-3)[Neu5Ac(b2-6)]GalNAc
# Method in brief: as §1
# Gal(b1-4)Gal = target: Gal(b1-4)Gal
# Method in brief: as §1
# [27] = target: Gal(b1-4)GalNAc(a1-3)[Fuc(a1-2)]Gal(b1-4)GlcNAc
# Method in brief: as §1
# [28] = target: Gal(b1-4)GalNAc(b1-3)[Fuc(a1-2)]Gal(b1-4)GlcNAc
# Method in brief: as §1
# Gal(b1-4)Glc = target: Gal(b1-4)Glc
# Method in brief: as §1
# Gal(b1-4)Glc6S = target: Gal(b1-4)Glc6S
# Method in brief: as §1
# Gal(b1-4)GlcNAc = target: Gal(b1-4)GlcNAc
# Method in brief: as §1
# [29] = target: Gal(b1-4)GlcNAc(a1-6)Gal(b1-4)GlcNAc
# Method in brief: as §1
# Gal(b1-4)GlcNAc(b1-2)Man = target: Gal(b1-4)GlcNAc(b1-2)Man
# Method in brief: as §1
# [30] = target: Gal(b1-4)GlcNAc(b1-2)Man(a1-3)Man(b1-4)GlcNAc(b1-4)GlcNAc
# Method in brief: as §1
# [31] = target: Gal(b1-4)GlcNAc(b1-2)Man(a1-3)[Gal(b1-4)GlcNAc(b1-2)Man(a1-6)]Man(b1-4)GlcNAc(b1-4)GlcNAc
# Method in brief: as §1
# [32] = target: Gal(b1-4)GlcNAc(b1-2)Man(a1-3)[Gal(b1-4)GlcNAc(b1-2)Man(a1-6)]Man(b1-4)GlcNAc(b1-4)[Fuc(a1-6)]GlcNAc
# Method in brief: as §1
# [33] = target: Gal(b1-4)GlcNAc(b1-2)Man(a1-3)[Gal(b1-4)GlcNAc(b1-2)Man(a1-6)][Gal(b1-4)GlcNAc(b1-4)]Man(b1-4)GlcNAc(b1-4)[Fuc(a1-6)]GlcNAc
# Method in brief: as §1
# [34] = target: Gal(b1-4)GlcNAc(b1-2)Man(a1-3)[Gal(b1-4)GlcNAc(b1-2)Man(a1-6)][GlcNAc(b1-4)]Man(b1-4)GlcNAc(b1-4)[Fuc(a1-6)]GlcNAc
# Method in brief: as §1
# [35] = target: Gal(b1-4)GlcNAc(b1-2)Man(a1-3)[GlcNAc(b1-2)Man(a1-6)]Man(b1-4)GlcNAc(b1-4)GlcNAc
# Method in brief: as §1
# [36] = target: Gal(b1-4)GlcNAc(b1-2)Man(a1-3)[GlcNAc(b1-4)][Gal(b1-4)GlcNAc(b1-2)Man(a1-6)]Man(b1-4)GlcNAc(b1-4)GlcNAc
# Method in brief: as §1
# [37] = target: Gal(b1-4)GlcNAc(b1-2)Man(a1-3)[Man(a1-6)]Man(b1-4)GlcNAc(b1-4)GlcNAc
# Method in brief: as §1
# [38] = target: Gal(b1-4)GlcNAc(b1-2)Man(a1-6)Man(b1-4)GlcNAc(b1-4)GlcNAc
# Method in brief: as §1
# [39] = target: Gal(b1-4)GlcNAc(b1-2)Man(a1-6)[GlcNAc(b1-2)Man(a1-3)]Man(b1-4)GlcNAc(b1-4)GlcNAc
# Method in brief: as §1
binder,measurement,setting,value
RobpsCRA (Robinia pseudoacacia) (protein) IKGGYWYSGSGLAVSDINPSHFTHLFCAFADLDPNTNKLTISSSNAAAFSTFTQTVRAKNPSVKTLLSIGGGGGRALAAVFANMASQASRRKSFIDSSIQLARRNNFHGLDLDWEYPSSDIDKTNFASLIREWRAAVATESSTSGTPALLLSAAVGGSDQITPLKYYPGEAIANNLDWVNVMTYDLYTSDSYPTLTQPPAPLFYPRGIFSADEGITKWIQSGVPESKLALGLPFYGFKWRLSDPNNHGLFAPATQGLGAVKYKDIVNTGGQVEFDSTYVTNYCFKGTDWYGYDDTQSISAKVAYAKQRGLFGYFAWHIEQDSNWALS,glycan array binding signal (z-score),[1],-0.414
same,glycan array binding signal (z-score),[2],-0.59
same,glycan array binding signal (z-score),[3],-0.739
same,glycan array binding signal (z-score),[4],-0.36
same,glycan array binding signal (z-score),[5],-0.356
same,glycan array binding signal (z-score),[6],-0.629
same,glycan array binding signal (z-score),[7],-0.122
same,glycan array binding signal (z-score),[8],1.19
same,glycan array binding signal (z-score),[9],0.989
same,glycan array binding signal (z-score),[10],-0.444
same,glycan array binding signal (z-score),[11],0.058
same,glycan array binding signal (z-score),[12],0.137
same,glycan array binding signal (z-score),[13],-0.893
same,glycan array binding signal (z-score),[14],0.201
same,glycan array binding signal (z-score),[15],-0.441
same,glycan array binding signal (z-score),[16],-0.385
same,glycan array binding signal (z-score),Gal(b1-3)GlcNAc6S,-0.051
same,glycan array binding signal (z-score),[17],-0.158
same,glycan array binding signal (z-score),[18],-0.286
same,glycan array binding signal (z-score),[19],-0.176
same,glycan array binding signal (z-score),[20],-0.405
same,glycan array binding signal (z-score),[21],-0.719
same,glycan array binding signal (z-score),[22],0.542
same,glycan array binding signal (z-score),[23],-0.77
same,glycan array binding signal (z-score),[24],0.054
same,glycan array binding signal (z-score),[25],-0.255
same,glycan array binding signal (z-score),[26],0.375
same,glycan array binding signal (z-score),Gal(b1-4)Gal,-0.47
same,glycan array binding signal (z-score),[27],-0.048
same,glycan array binding signal (z-score),[28],-0.51
same,glycan array binding signal (z-score),Gal(b1-4)Glc,-0.271
same,glycan array binding signal (z-score),Gal(b1-4)Glc6S,0.053
same,glycan array binding signal (z-score),Gal(b1-4)GlcNAc,-0.616
same,glycan array binding signal (z-score),[29],-0.885
same,glycan array binding signal (z-score),Gal(b1-4)GlcNAc(b1-2)Man,0.089
same,glycan array binding signal (z-score),[30],-0.532
same,glycan array binding signal (z-score),[31],-0.393
same,glycan array binding signal (z-score),[32],0.387
same,glycan array binding signal (z-score),[33],-0.956
same,glycan array binding signal (z-score),[34],0.589
same,glycan array binding signal (z-score),[35],-0.923
same,glycan array binding signal (z-score),[36],-0.771
same,glycan array binding signal (z-score),[37],-0.195
same,glycan array binding signal (z-score),[38],-0.656
same,glycan array binding signal (z-score),[39],0.209

# Not a retest: an excerpt of the list.
binder,measurement,setting,value
RobpsCRA (Robinia pseudoacacia) (protein) IKGGYWYSGSGLAVSDINPSHFTHLFCAFADLDPNTNKLTISSSNAAAFSTFTQTVRAKNPSVKTLLSIGGGGGRALAAVFANMASQASRRKSFIDSSIQLARRNNFHGLDLDWEYPSSDIDKTNFASLIREWRAAVATESSTSGTPALLLSAAVGGSDQITPLKYYPGEAIANNLDWVNVMTYDLYTSDSYPTLTQPPAPLFYPRGIFSADEGITKWIQSGVPESKLALGLPFYGFKWRLSDPNNHGLFAPATQGLGAVKYKDIVNTGGQVEFDSTYVTNYCFKGTDWYGYDDTQSISAKVAYAKQRGLFGYFAWHIEQDSNWALS,glycan array binding signal (z-score),[12],0.137
same,glycan array binding signal (z-score),[13],-0.893
same,glycan array binding signal (z-score),[14],0.201
